# Data from PubChem BioAssay AID686934 (National Center for Advancing Translational Sciences (NCATS), 2013).
# All entries are inconclusive by the source's own rule. Clear calls are listed elsewhere. The call rests on the fitted dose curve; in most records, active means well fitted curve in the direction sought with a large enough effect; inconclusive means small, poorly fitted or top-dose-only effect, or another doubt; inactive means no such curve, though single readings can be large or run the other way. Where the call is inconclusive, the potency comes from a doubtful curve fit.
# Assay: qHTS screen for small molecules that inhibit ELG1-dependent DNA repair: SAR in Cell-Based Luciferin Counter Assay
# Conditions: purified firefly luciferase counter-screen, luminescence
# Excerpt: Cancer cells divide rapidly compared to normal cells in the body. During cell division, cancer cells need to duplicate their genome by DNA replication. The failure of genome duplication leads to cancer cells' death. Therefore, inhibitors of DNA replication could specifically kill cancer cells. Based on this concept, many chemotherapeutic agents were developed and have been used to treat cancer patients. However, there are a limited number of agents available in the clinical setting, and some of those that do exist have low efficacy and severe side effects. Therefore, if we can find the compounds that effectively block DNA replication either by directly damaging DNA or by inhibiting other cellular mechanisms, the options for cancer treatment will be broadened. With this in mind, we developed a quantitative high-throughput ELG1-luciferase reporter gene assay. Small molecules that specifically block ELG1 function in response to DNA damage can be identified by monitoring the suppression of luciferase activity. […]
# 3 uL of substrate reagent will be pipetted into each well in 1536-well white, solid-bottom plates using a FRD dispenser, followed by addition of 23 nL of DMSO or compounds by pintool. […] The plates will be read in a ViewLux CCD-based plate reader.
smiles,measurement,value
COc1ccc(C[C@H]2NC[C@H](O)[C@H]2OC(C)=O)cc1,Potency,"inconclusive: 12.6 nM [inhibitor, full curve]"
